In US9271957B2, “Methods of treating or preventing degenerative joint conditions, osteoarthritis, cartilage damage, and related disorders in companion animals” (HILL'S PET NUTRITION, INC., priority 2008, dated 2016):

Tested on: genes related to cartilage and energy metabolism
Assay: Differential gene expression profile, whole blood RNA on canine 2 Affymetrix genechips
Type: in vivo, dogs
Conditions: for Number of genes with altered expression: minimum 1.3 fold change, d 30
Description: A differential gene expression profile was studied between an AAFCO control food, a food containing fish oil, and a food containing lipoic acid. At a minimum of 1.3 fold change, a list of 1212 genes was generated compared to the AAFCO control and 1896 genes compared to the food containing fish oil at d 30.
RNA Extraction: Total RNAs were isolated from whole blood samples using the PAXgene RNA isolation kit. All measurements were done with the canine 2 Affymetrix genechips. For statistical analysis, all measurements were normalized with RMA. All analysis was preformed using Partek. An ANOVA t-test was performed for genes that are differentially expressed between the control and test foods were selected based on p-value cutoff 0.1, fold change >+/−1.3.
Table 4 illustrates the change in genes related to cartilage metabolism and energy metabolism in dogs after being fed a control diet compared with dogs fed a control plus lipoic acid.

O=C(O)CCCC[C@@H]1CCSS1 (racemic) [Lipoic acid, lipoic acid]
Genomic profile compared to dogs fed the control food (dogs fed lipoic acid): genomically leaner
Number of genes with altered expression (test food containing lipoic acid vs test food containing fish oil): 1896 genes
Number of genes with altered expression (test food with 150 ppm lipoic acid vs AAFCO control food): 1212 genes
